Measured values taken from PubChem BioAssay (NCATS).
The shares of active, inactive and inconclusive entries below differ from those in the screen. For part of these data: Potencies of inconclusive entries are doubtful fits and often do not repeat. Activity calls are given as the source filed them. Calls follow the shape of the dose curve; as a rule, active = well fitted curve in the direction sought with a large enough effect; inconclusive = small, poorly fitted or top-dose-only effect, or another doubt; inactive = no such curve, though single readings can be large; an effect the other way counts as inactive or inconclusive.

Columns and labels:
[1] = Quantitative High-Throughput drug screen in 47 multiple myeloma cell lines against the NCATS MIPE library collection: KMS20_JCRB cell viability assay (AID 1918973); settings: CellTiter-Glo ATP, 48 h; viability (% of DMSO): at 45.8 µM (top of the series); also: nearly all actives have a fitted effect of over 45% in size; also: potency is read from the fitted curve at half-maximal effect
Summary of the method: (§1)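 Viability readout: CellTiter-Glo luminescence following 5 min room-temperature incubation with reagent. Prior exposure: 48 h, 37C, humidified 5% CO2, 500 cells per well.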

[2] = Quantitative High-Throughput drug screen in 47 multiple myeloma cell lines against the NCATS MIPE library collection: OCIMY1_PLB cell viability assay (AID 1918979); settings: OCI-MY1 myeloma viability, CellTiter-Glo ATP, 48 h; viability: at 45.8 µM (top of the series) unless noted; also: nearly all actives have a fitted effect of over 35% in size; also: potency is read from the fitted curve at half-maximal effect
Summary of the method: (§2)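 Viability after 48 h drug exposure was measured as ATP-dependent luminescence. Cells, 500 per well, sat at 37 °C under 5% CO2; DMSO wells set 100%, media-only wells 0%.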

[3] = Quantitative High-Throughput drug screen in 47 multiple myeloma cell lines against the NCATS MIPE library collection: MM1S_ATCC cell viability assay (AID 1918980); also: potency is read from the fitted curve at half-maximal effect; nearly all actives have a fitted effect of over 45% in size
Summary of the method: as §2

[4] = Quantitative High-Throughput drug screen in 47 multiple myeloma cell lines against the NCATS MIPE library collection: MM1R_ATCC cell viability assay (AID 1918981); also: nearly all actives have a fitted effect of over 35% in size; also: potency is read from the fitted curve at half-maximal effect
Summary of the method: as §2

[5] = Quantitative High-Throughput drug screen in 47 multiple myeloma cell lines against the NCATS MIPE library collection: LP1_DSMZ cell viability assay (AID 1918982); settings: LP1 myeloma viability, CellTiter-Glo ATP luminescence, 48 h; viability (% of control): at 45.8 µM (top of the series); also: nearly all actives have a fitted effect of over 35% in size; also: potency is read from the fitted curve at half-maximal effect
Summary of the method: as §2

[6] = Quantitative High-Throughput drug screen in 47 multiple myeloma cell lines against the NCATS MIPE library collection: KMS28PE_JCRB cell viability assay (AID 1918983); also: nearly all actives have a fitted effect of over 35% in size; also: potency is read from the fitted curve at half-maximal effect
Summary of the method: as §2

[7] = Quantitative High-Throughput drug screen in 47 multiple myeloma cell lines against the NCATS MIPE library collection: L363_DSMZ cell viability assay (AID 1918984); settings: L363 myeloma viability, CellTiter-Glo ATP luminescence, 48 h; viability (% of control): at 45.8 µM (top of the series); also: nearly all actives have a fitted effect of over 40% in size; also: potency is read from the fitted curve at half-maximal effect
Summary of the method: as §2

[8] = Quantitative High-Throughput drug screen in 47 multiple myeloma cell lines against the NCATS MIPE library collection: U266_ATCC cell viability assay (AID 1919864); settings: U266 myeloma viability, CellTiter-Glo ATP luminescence, 48 h; viability (% of DMSO control): at 45.8 µM (top of the series)
Summary of the method: as §2

[9] = Quantitative High-Throughput drug screen in 47 multiple myeloma cell lines against the NCATS MIPE library collection: KMS21BM_JCRB cell viability assay (AID 1918974); settings: ATP luminescence, 48 h; viability: at 45.8 µM (top of the series) unless noted; also: potency is read from the fitted curve at half-maximal effect
Summary of the method: as §1

[10] = Quantitative High-Throughput drug screen in 47 multiple myeloma cell lines against the NCATS MIPE library collection: KMS26_JCRB cell viability assay (AID 1918975); settings: KMS26 myeloma cells viability, CellTiter-Glo ATP, 48 h; viability (% of DMSO): at 45.8 µM (top of the series); also: nearly all actives have a fitted effect of over 45% in size; also: potency is read from the fitted curve at half-maximal effect
Summary of the method: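 Relative luminescence from CellTiter-Glo served as the viability signal, referenced to DMSO-treated (100%) and cell-free medium (0%) controls. Treatment lasted 48 hours at 37C with 500 cells per well.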

[11] = Quantitative High-Throughput drug screen in 47 multiple myeloma cell lines against the NCATS MIPE library collection: MMM1_PLB cell viability assay (AID 1918976)
Summary of the method: as §2

[12] = Quantitative High-Throughput drug screen in 47 multiple myeloma cell lines against the NCATS MIPE library collection: MOLP8_DSMZ cell viability assay (AID 1918977); settings: MOLP8 myeloma viability, CellTiter-Glo ATP luminescence, 48 h; viability (% of control): at 45.8 µM (top of the series); also: nearly all actives have a fitted effect of over 45% in size; also: potency is read from the fitted curve at half-maximal effect
Summary of the method: as §2

[13] = Quantitative High-Throughput drug screen in 47 multiple myeloma cell lines against the NCATS MIPE library collection: NCIH929_DSMZ cell viability assay (AID 1918978)
Summary of the method: as §2

[14] = Quantitative High-Throughput drug screen in 47 multiple myeloma cell lines against the NCATS MIPE library collection: KMS34_JCRB cell viability assay (AID 1918985); settings: KMS34 myeloma viability, CellTiter-Glo ATP luminescence, 48 h; viability, percent of control: at 45.8 µM (top of the series); also: nearly all actives have a fitted effect of over 40% in size; also: potency is read from the fitted curve at half-maximal effect
Summary of the method: as §2

[15] = Quantitative High-Throughput drug screen in 47 multiple myeloma cell lines against the NCATS MIPE library collection: OCIMY5_PLB cell viability assay (AID 1918988); settings: OCI-MY5 myeloma viability, ATP luminescence, 48 h; viability, % of control: at 45.8 µM (top of the series); also: potency is read from the fitted curve at half-maximal effect; nearly all actives have a fitted effect of over 65% in size
Summary of the method: as §2

[16] = Quantitative High-Throughput drug screen in 47 multiple myeloma cell lines against the NCATS MIPE library collection: SKMM1_PLB cell viability assay (AID 1919863); settings: SKMM1 myeloma viability, CellTiter-Glo ATP, 48 h; viability: stronger effect = lower value; also: nearly all actives have a fitted effect of over 35% in size; also: potency is read from the fitted curve at half-maximal effect
Summary of the method: as §2

[17] = Quantitative High-Throughput drug screen in 47 multiple myeloma cell lines against the NCATS MIPE library collection: OCIMY7_PLB cell viability assay (AID 1918987); settings: OCI-MY7 myeloma viability, CellTiter-Glo ATP, 48 h; viability (% of DMSO): at 45.8 µM (top of the series); also: potency is read from the fitted curve at half-maximal effect; nearly all actives have a fitted effect of over 65% in size
Summary of the method: as §2

[18] = Quantitative High-Throughput drug screen in 47 multiple myeloma cell lines against the NCATS MIPE library collection: OPM1_PLB cell viability assay (AID 1918989); also: potency is read from the fitted curve at half-maximal effect; nearly all actives have a fitted effect of over 40% in size
Summary of the method: as §2

[19] = Quantitative High-Throughput drug screen in 47 multiple myeloma cell lines against the NCATS MIPE library collection: XG1_PLB cell viability assay (AID 1919866); settings: CellTiter-Glo ATP, 48 h; viability: at 45.8 µM (top of the series); also: nearly all actives have a fitted effect of over 35% in size
Summary of the method: as §2

[20] = Quantitative High-Throughput drug screen in 47 multiple myeloma cell lines against the NCATS MIPE library collection: XG6_PLB cell viability assay (AID 1919865); settings: XG6 myeloma viability, CellTiter-Glo ATP luminescence, 48 h; viability (% of control): at 45.8 µM (top of the series); also: potency is read from the fitted curve at half-maximal effect; nearly all actives have a fitted effect of over 40% in size
Summary of the method: as §2

## COc1cc2ncnc(Nc3cc(Br)c(O)c(Br)c3)c2cc1OC
[1]
  Potency: active: 2.3 nM
[2]
  Potency: inconclusive: 37.2 µM [cytotoxic, single point]
[3]
  Potency: active: 2.6 nM
[4]
  Potency: active: 0.0418 µM
[5]
  Potency: inconclusive: 26.4 µM [cytotoxic, single point]
[6]
  Potency: active: 1.48 µM
[7]
  Potency: inconclusive: 7.43 µM [cytotoxic, full curve, poor fit]
[8]
  Potency: inconclusive: 11.8 µM [rising, single point]

## Nc1ncn([C@H]2C[C@H](O)[C@@H](CO)O2)c(=O)n1
[9]
  Potency: inconclusive: 0.0743 µM [cytotoxic, full curve, poor fit]
[10]
  Potency: inactive
[11]
  Potency: inconclusive: 0.0015 µM [rising, full curve, poor fit]
[12]
  Potency: inactive
[13]
  Potency: inconclusive: 2.96 µM [cytotoxic, partial curve, poor fit]
[2]
  Potency: inactive
[4]
  Potency: inactive
[6]
  Potency: inactive
[7]
  Potency: inactive
[14]
  Potency: inconclusive: 0.0372 µM [cytotoxic, full curve]
[15]
  Potency: inconclusive: 1.9 nM [cytotoxic, full curve, poor fit]
[16]
  Potency: active: 5.9 µM

## CCCc1nc(C(C)(C)O)c(C(=O)O)n1Cc1ccc(-c2ccccc2-c2nn[nH]n2)cc1
[1]
  Potency: inactive
[11]
  Potency: inconclusive: 0.0037 µM [rising, full curve, poor fit]
[12]
  Potency: inconclusive: 0.0148 µM [rising, full curve, poor fit]
[3]
  Potency: inconclusive: 16.6 nM [rising, full curve, poor fit]
[5]
  Potency: inactive
[6]
  Potency: inactive
[7]
  Potency: inactive
[14]
  Potency: inactive
[17]
  Potency: inconclusive: 37.2 µM [cytotoxic, single point]
[15]
  Potency: inconclusive: 3320 nM [rising, full curve, poor fit]
[18]
  Potency: inconclusive: 11.8 µM [rising, single point]
[16]
  viability: inactive: 131%
[19]
  Potency: inactive

## CC(C)c1c(C(=O)Nc2ccccc2)c(-c2ccccc2)c(-c2ccc(F)cc2)n1CC[C@H](O)C[C@@H](O)CC(=O)O
[9]
  Potency: inconclusive: 18.7 µM [rising, partial curve]
[10]
  Potency: inactive
[11]
  Potency: active: 8.33 µM
[12]
  Potency: inconclusive: 10.5 µM [cytotoxic, partial curve]
[13]
  Potency: inconclusive: 9.35 µM [cytotoxic, partial curve]
[3]
  Potency: active: 16600 nM
[7]
  Potency: inconclusive: 0.0296 µM [cytotoxic, full curve, poor fit]
[14]
  Potency: inconclusive: 18.7 µM [cytotoxic, partial curve, poor fit]
[15]
  Potency: inconclusive: 1.5 nM [cytotoxic, full curve, poor fit]
[8]
  Potency: inconclusive: 5.9 µM [cytotoxic, full curve, poor fit]

## C[C@]1(CO)CN(c2cc(C(=O)Nc3ccc4c(c3)-c3c(c(C(N)=O)nn3-c3ccc(F)cc3)CC4)c(Cl)cn2)C[C@@]1(C)CO
[9]
  Potency: active: 5.26 µM
[10]
  Potency: inconclusive: 10.5 µM [cytotoxic, partial curve, poor fit]
[11]
  Potency: active: 14.8 µM
[12]
  Potency: inconclusive: 18.7 µM [cytotoxic, partial curve, poor fit]
[4]
  Potency: active: 8.33 µM
[5]
  Potency: inconclusive: 6.62 µM [cytotoxic, partial curve, poor fit]
[6]
  Potency: inconclusive: 18.7 µM [cytotoxic, partial curve, poor fit]
[7]
  Potency: inconclusive: 4.69 µM [cytotoxic, full curve, poor fit]
[14]
  Potency: inconclusive: 3.32 µM [cytotoxic, full curve, poor fit]
[17]
  Potency: active: 1.87 µM
[16]
  Potency: inconclusive: 13.2 µM [cytotoxic, partial curve, poor fit]
[8]
  Potency: active: 18.7 µM

## Cn1cnc(=N)c2[nH]cnc21
[1]
  Potency: active: 52.6 nM
[2]
  Potency: active: 0.743 µM
[20]
  Potency: active: 0.132 µM

## CC1=CC(=O)c2ccccc2C1=O
[1]
  Potency: inconclusive: 18700 nM [cytotoxic, partial curve, poor fit]
[11]
  Potency: active: 8.33 µM
[12]
  Potency: inconclusive: 20.9 µM [cytotoxic, partial curve, poor fit]
[2]
  Potency: inconclusive: 26.4 µM [cytotoxic, single point]
[6]
  Potency: inconclusive: 33.2 µM [cytotoxic, single point]
[7]
  Potency: inconclusive: 33.2 µM [cytotoxic, single point]
[14]
  Potency: inconclusive: 33.2 µM [cytotoxic, single point]
[17]
  Potency: active: 33.2 µM
[15]
  Potency: active: 16600 nM
[16]
  Potency: active: 16.6 µM
[20]
  Potency: active: 14.8 µM
